Source: patent US4975450A, “Antidiarrheal” (Slovenska Akademia Vied, priority 1987, dated 1990)

Assay: retention of stomach content
Type: in vivo
Settings: active substance 10-20 mg/kg; atropin dose not stated

For `CN1C2CCC1CC(OC(=O)C(CO)c1ccccc1)C2` (stereo not shown) [atropin, reference compound], the “retention of stomach content” value was “increases”.
